Structures are written as SMILES. The whole screen tested about 1,900 compounds, of which about 15 (0.8%) were called active.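 The calls were made as follows: active = every replicate shows at least 50% inhibition; inconclusive = mean inhibition at least 50% but some replicate below; inactive = the rest.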 The list shows a part of the results.

By UniProt entry, the sequences of proteins in these tests, tags left out. Where a name states a change or a piece, a line headed by the entry shows the natural chain unless it says otherwise.
UniProt P43351: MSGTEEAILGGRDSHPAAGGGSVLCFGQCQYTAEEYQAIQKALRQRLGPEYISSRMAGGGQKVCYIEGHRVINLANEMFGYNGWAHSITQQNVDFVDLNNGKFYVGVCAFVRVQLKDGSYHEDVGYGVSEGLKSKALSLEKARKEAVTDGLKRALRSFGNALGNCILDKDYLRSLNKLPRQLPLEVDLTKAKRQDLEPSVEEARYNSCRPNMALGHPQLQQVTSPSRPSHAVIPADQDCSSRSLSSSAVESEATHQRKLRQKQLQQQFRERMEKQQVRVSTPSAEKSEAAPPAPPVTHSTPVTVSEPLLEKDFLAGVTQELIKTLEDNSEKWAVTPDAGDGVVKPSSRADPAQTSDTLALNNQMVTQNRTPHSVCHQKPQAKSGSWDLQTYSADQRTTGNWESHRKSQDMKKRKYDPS

This assay addresses DNA repair protein RAD52 homolog (Homo sapiens) (UniProt P43351). In words: RAD52 ssDNA annealing inhibitors, primary screen, biochemical, FRET, single point (AID 651660).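 Also: 0% = median of neutral control wells and 100% = median of positive control wells.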 The settings on record: Recombinant RAD52 ssDNA annealing, FRET fluorescence, 30 min; at 18.7 µM; active compounds read high.
With `COc1ccc2c(c1)C(=O)CC(c1ccccc1F)O2` (stereo unspecified), the inhibition was inactive: 4.55%.

In the case of `CC1(C)CC(c2csc(N)n2)CCO1` (stereo unspecified), the inhibition was inactive: -1.66%.

As to `COCCOC(=O)C1=C(C)NC(C)=C(C(=O)OC(C)C)C1c1cccc([N+](=O)[O-])c1` (stereo unspecified), the inhibition is inactive: 4.98%.

Take `CN1C(C(=O)Nc2ccccn2)=C(O)c2ccccc2S1(=O)=O`: the inhibition was inactive: 3.33%.

As to `Cc1ccc2c(ccc(=S)n2C)c1`, the inhibition was inactive: -5.88%.

Turning to `O=C(O)CCCNc1ccc(S(=O)(=O)Nc2ccccc2C(=O)O)cc1C(=O)O`, the inhibition is inactive: -12.9%.

Consider `CC1(C)[C@@H](O)CC[C@]2(C)[C@H]3C(=O)C=C4[C@@H]5C[C@@](C)(C(=O)O)CC[C@]5(C)CC[C@@]4(C)[C@]3(C)CC[C@@H]12`, for which the inhibition was inactive: -1.28%.

Regarding `CN(C)CCCNc1ncnc2c1cnn2-c1ccccc1`, the inhibition was inactive: -3.11%.

With `COc1cc(NC(=O)COc2ccccc2)c(OC)cc1NC(C)=O`, the inhibition is inactive: -8.13%.

On to `CN1/C(=C\C=Nc2ccccc2)C(C)(C)c2ccccc21`, for which the inhibition was inactive: -41.7%.

Consider `COc1cc(C(=O)NCCc2c[nH]c3ccccc23)ccc1OCc1c(C)noc1C`, for which the inhibition is inactive: 2.01%.

For `CC(C)c1ccc2[nH]c3c(c2c1)CCCC3=O`, the inhibition was inactive: 4.13%.

Take `Cc1ccc2c(c1)C(CCN)C(=O)N2Cc1ccccc1` (stereo unspecified): the inhibition is inactive: 16.9%.

In the case of `COC(=O)c1cc(Br)c(=O)n(CCc2ccc(O)cc2)c1`, the inhibition is inactive: -4.38%.

On to `CCOC(=O)C1NN=C(C(=O)c2ccccc2)C1c1ccc(Cl)cc1` (stereo unspecified), for which the inhibition was inactive: -14.5%.

Turning to `Cc1cccc2c1CC(C)(C)N/C2=C\C(N)=O`, the inhibition is inactive: -11.6%.

`CC(C[N+](C)(C)C)OC(N)=O` (stereo unspecified): the inhibition is inactive: 7.25%.

Turning to `Cc1onc(-c2c(Cl)cccc2Cl)c1C(=O)NC1C(=O)N2C1SC(C)(C)C2C(=O)O` (stereo unspecified), the inhibition is inactive: -6.94%.

On to `CN(CCCN1CCOCC1)Cc1cn(C)nc1-c1ccccc1F`, for which the inhibition was inactive: -2.16%.

On to `CN(C)CCN(Cc1ccc(Cl)cc1)c1ccccn1`, for which the inhibition is inactive: -1.17%.

As for `O=C(c1cccc2ccccc12)C1CCCN(C(=O)CCN2CCCO2)C1` (stereo unspecified), the inhibition is inactive: -0.246%.

As for `COc1ccc([C@@H]2Sc3ccccc3N(CCN(C)C)C(=O)[C@@H]2OC(C)=O)cc1`, the inhibition is inactive: -15.9%.

For the compound `COC(=O)[C@@H](N)CS`, the inhibition is inactive: -24.3%.

As for `O=C(CS(=O)(=O)c1ccccc1)c1ccc2c(c1)OCCO2`, the inhibition is inactive: -0.895%.

For `Cc1cn([C@H]2C[C@H](N=[N+]=[N-])[C@@H](CO)O2)c(=O)[nH]c1=O`, the inhibition was inactive: 0.197%.

Consider `CCCCC1C(=O)N(c2ccccc2)N(c2ccccc2)C1=O`, for which the inhibition is inactive: 2.56%.

Regarding `C#CCN1C(=O)C(O)(CC(=O)c2ccc(OC)c(OC)c2)c2ccccc21` (stereo unspecified), the inhibition was inactive: 5.35%.

`COc1ccc(S(=O)(=O)NC(Cc2cnc[nH]2)C(=O)O)cc1` (stereo unspecified): the inhibition was inactive: -2.2%.

In the case of `COc1ccccc1/C=C/C(=O)OCCN1CCOCC1`, the inhibition was inactive: -22.5%.

On to `CC1=CC(=O)c2ccccc2C1=O`, for which the inhibition was inactive: -14.1%.

On to `CN(C)CCOc1ccccc1Cc1ccccc1`, for which the inhibition was inactive: 1.84%.

On to `CC1/C(=C\c2ccc(Cl)cc2)C(=O)C2CC1C2(C)C` (stereo unspecified), for which the inhibition is inactive: 13.8%.

For `CCOc1ccc(C(NC(C)=O)c2ccc(OC)c(OC)c2)cc1` (stereo unspecified), the inhibition was inactive: -1.19%.

Turning to `CC1(c2ccccc2)CC(C)(C)N2C(=O)C(=O)c3cccc1c32` (stereo unspecified), the inhibition was inactive: 1.28%.

On to `CCOc1ccc2nc(N/C(N)=N/S(C)(=O)=O)nc(C)c2c1`, for which the inhibition was inactive: -3.39%.

For `Cc1ccc(S(=O)(=O)NC(C(=O)Oc2cc3oc(=O)cc(C)c3cc2Cl)C(C)C)cc1` (stereo unspecified), the inhibition is inactive: 3.66%.

As to `Cc1[nH]c2ccccc2c1C(=O)C(=O)NCc1ccco1`, the inhibition was inactive: 1.74%.

For the compound `COCCN(CCOC)Cc1c(C)[nH]c2c(C)c(C)ccc2c1=O`, the inhibition was inactive: -2.9%.

With `CCC(=O)Oc1ccc(C(=O)Nc2ccc([N+](=O)[O-])cc2)cc1`, the inhibition was inactive: 3.79%.

`Cc1cnc(N)c2c(=O)oc3ccccc3c12`: the inhibition is inactive: -14.5%.

As to `CC(=O)OCC(=O)[C@@]12OC3(CCCC3)O[C@@H]1C[C@H]1[C@@H]3CCC4=CC(=O)C=C[C@]4(C)[C@@]3(F)[C@@H](O)C[C@@]12C`, the inhibition was inactive: 4.21%.

Regarding `CCn1c(C)cc2c(c1=O)C(c1ccccc1)C(C(=O)OC)=C(N)O2` (stereo unspecified), the inhibition is inactive: -14.3%.

In the case of `NC(=O)c1c(-c2ccccc2)oc2ccc(O)cc12`, the inhibition was inactive: -0.68%.

For the compound `CCCC(=O)Nc1ccc(OCC(O)CNC(C)C)c(C(C)=O)c1` (stereo unspecified), the inhibition was inactive: -0.789%.

As to `COc1ccc(C2C3CCCCC3(O)CCN2C(=O)c2cccs2)cc1` (stereo unspecified), the inhibition was inactive: 3.36%.

`COc1ccc(C2=NOC(COc3ccc4c(C)cc(=O)oc4c3)C2)c(OC)c1` (stereo unspecified): the inhibition was inactive: -10%.

As for `O=c1c(-c2ccccc2)c(O)c2cccc3c2n1CCC3`, the inhibition was inactive: -3.26%.

For the compound `CC1CCCC(C)N1NC(=O)c1ccc(Cl)c(S(N)(=O)=O)c1` (stereo unspecified), the inhibition was inactive: -9.73%.

Turning to `Nc1nnc(-c2cccc(Cl)c2Cl)c(N)n1`, the inhibition is inactive: 3.5%.

In the case of `C(=C/c1nccc2c1[nH]c1ccccc12)/c1ccc2c(c1)OCO2`, the inhibition is inactive: 38.5%.

Take `OCC1CCN(Cc2cn(Cc3ccccc3)nc2-c2cc3ccccc3o2)CC1`: the inhibition is inactive: -15.4%.

`CC1(C)Cc2ccccc2-c2n[nH]c(=S)n21`: the inhibition is inactive: -3.47%.

With `COc1ccccc1CCn1cnc2c3cc(C)ccc3n(C)c2c1=O`, the inhibition was inactive: -2.79%.

With `COc1ccc2c(c1)c(=O)oc1cc3occ(C(C)(C)C)c3cc12`, the inhibition is inactive: -4.79%.

Take `CC(=O)O[C@]1(C(C)=O)CC[C@H]2[C@@H]3C=C(C)C4=CC(=O)CC[C@]4(C)[C@H]3CC[C@@]21C`: the inhibition was inactive: 7.57%.

As for `CC(=O)/C=C/c1ccc(C)o1`, the inhibition was inactive: -8.38%.

Turning to `C=CCOC(=O)C1=C(C)NC(=O)NC1/C=C/c1ccccc1OC` (stereo unspecified), the inhibition is inactive: -14.2%.

In the case of `O=C(/C=C/c1ccc2c(c1)OCCCO2)c1ccc2ccccc2c1O`, the inhibition was inactive: -4.43%.

Regarding `Nc1nnc(CSCc2ccc(Cl)cc2Cl)s1`, the inhibition was inactive: -0.765%.

For `CC(=O)N(C(C)=O)c1nc2nc(C)cc(C)n2n1`, the inhibition was inactive: -3.11%.

In the case of `COc1cc2cc(C(=O)O)[nH]c2c(OC)c1OC`, the inhibition is inactive: -10.3%.

Turning to `Cc1oc2cc(O)ccc2c(=O)c1Oc1ccccc1Br`, the inhibition was inactive: 2.65%.

`O=C(CC(C(=O)O)c1c[nH]c2ccccc12)c1ccccc1` (stereo unspecified): the inhibition is inactive: -7.15%.

Turning to `CC(=O)NCCCCCCNC(C)=O`, the inhibition was inactive: -5.85%.

On to `CC(C)Cc1ccc(C(C)C(=O)Nc2ccc(O)cc2)cc1` (stereo unspecified), for which the inhibition was inactive: 6.93%.

For the compound `CC(C)OC(=O)CC1C(=O)NCCN1C(=S)NC(=O)c1ccccc1Cl` (stereo unspecified), the inhibition is inactive: 1.57%.

As a reminder, the inhibition is the change of the read-out against control, counted positive when it falls.
